Measurements: paper PMC7819943, “Rice protein-binding microarrays: a tool to detect cis-acting elements near promoter regions in rice”
The list shows a part of the results.

Each sequence was assayed against T1, OsSMF1 (Oryza sativa, UniProt Q6ZLB0 1-436) (assay: protein-binding microarray (RPBM); PBS, 2% BSA, 51.3 ng/ul salmon testes DNA, 50 uM zinc acetate, 200 nM TF, 25 C, 1 h; high values mean tight binding). Settings: protein: recombinant; tags: N-terminal polyhistidine and DsRed monomer fusion (pET32a); chain copies: 2; label: CyDye5-dUTP incorporated in the synthesized complementary strand; 3' TTTTT single-stranded linker to array surface; dsDNA, one strand shown.
T1 sequence: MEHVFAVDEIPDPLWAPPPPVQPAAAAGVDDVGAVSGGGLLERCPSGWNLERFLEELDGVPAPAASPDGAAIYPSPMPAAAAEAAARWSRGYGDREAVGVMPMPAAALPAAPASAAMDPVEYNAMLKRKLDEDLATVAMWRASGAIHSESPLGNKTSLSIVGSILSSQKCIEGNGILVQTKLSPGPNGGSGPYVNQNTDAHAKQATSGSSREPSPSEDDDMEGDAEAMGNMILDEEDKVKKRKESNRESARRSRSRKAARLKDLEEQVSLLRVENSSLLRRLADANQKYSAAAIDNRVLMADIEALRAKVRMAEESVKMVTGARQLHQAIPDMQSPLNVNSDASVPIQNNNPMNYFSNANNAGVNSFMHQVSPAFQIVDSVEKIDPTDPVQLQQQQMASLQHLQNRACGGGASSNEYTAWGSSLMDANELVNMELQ
Procedure, shortened: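 A custom Agilent array was converted to double-stranded form by primer extension with Cy5-dUTP and blocked with 2% BSA. Protein at 200 nM in PBS with 2% BSA, salmon testes DNA and 50 µM zinc acetate was applied for 1 h at 25 °C, followed by washing. The proteins were polyhistidine–DsRed N-terminal fusions of transcription factors, expressed in E. coli BL21-CodonPlus and Ni–NTA-purified. The binding signal is per-feature fluorescence intensity (arbitrary units) from an Axon 4000B scanner.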
For “AACTGCACTGTGCGTGTACACCATCTTAGCTGGAACGTGCCGGAGTCACCTAGTGCAG”, the binding signal was 3400 fluorescence intensity (a.u.).
For “ACTCATATTGCAAATGTCATGTTTATTGTCTTAATATTTTCGGAGTCACCTAGTGCAG”, the binding signal was 3950 fluorescence intensity (a.u.).
“ATTCATTGTTAAATATATTTTCATGTAGGCATATAATTTTCGGAGTCACCTAGTGCAG” was tested, and the binding signal was 17100 fluorescence intensity (a.u.).
In the case of “CGGTCGGTCCATCGCCCTCCGTCCCCATCCCCACCGTCACCGGAGTCACCTAGTGCAG”, the binding signal is reported as 41900 fluorescence intensity (a.u.).
For “CTTGTTGTGTTGTGCACTTGTGCTGCATCTGTGCAGTGTGCGGAGTCACCTAGTGCAG”, the binding signal was 3590 fluorescence intensity (a.u.).
In the case of “CGCCGACCCACTCACCCACACAACGCGTGCGGTCGCCGGACGGAGTCACCTAGTGCAG”, the binding signal is reported as 5590 fluorescence intensity (a.u.).
In the case of “CGAATTTCTAAGCTCTCACAACCTACTCGTTAGAGTTAACCGGAGTCACCTAGTGCAG”, the binding signal is reported as 3660 fluorescence intensity (a.u.).
“ACCGTCCCGCTAATCTTTTCCCAAACCCATTCGATTTGGGCGGAGTCACCTAGTGCAG” was tested, and the binding signal was 3430 fluorescence intensity (a.u.).
In the case of “ACGTGAGCGCTCCCGGTCATTAGGAGCCACGTCAGCTGGCCGGAGTCACCTAGTGCAG”, the binding signal is reported as 24400 fluorescence intensity (a.u.).
“ATTTAGTGCTAAATATGTAGTTTCATGATACATCATGTTACGGAGTCACCTAGTGCAG” was tested, and the binding signal was 3850 fluorescence intensity (a.u.).
For “TATGGTATTGTCACACATGGCAGGTACAAACCACTGAGCTCGGAGTCACCTAGTGCAG”, the binding signal was 3720 fluorescence intensity (a.u.).
With “AGACTGAAAGAGAGAGGAAGGAAGAGAGATGACGTGGCATCGGAGTCACCTAGTGCAG” the binding signal was 35800 fluorescence intensity (a.u.).
“CATCCACACTGGCGACTCCGTCGTGGCGAGTGTGGCGGTGCGGAGTCACCTAGTGCAG” was tested, and the binding signal was 4920 fluorescence intensity (a.u.).
With “CTGCCACAAACCACGGAGACAACACACGCAGCTCGCCGACCGGAGTCACCTAGTGCAG” the binding signal was 3400 fluorescence intensity (a.u.).
For “GCCATGGTGACGATGGCGAGGTAGAGGGAGGTGACGTAGCCGGAGTCACCTAGTGCAG”, the binding signal was 5870 fluorescence intensity (a.u.).
“CACCATTTTGGGCCGACACATCAAGCAGGCCAACGCGCAGCGGAGTCACCTAGTGCAG” was tested, and the binding signal was 3300 fluorescence intensity (a.u.).
“AAGTTTGCAGCATTTCGCAAGCTAGCCACGACTTCGGAGACGGAGTCACCTAGTGCAG” was tested, and the binding signal was 31000 fluorescence intensity (a.u.).
In the case of “AAGCGACGACTTCCTCCCCTCCCACACGCATCCCGTCATCCGGAGTCACCTAGTGCAG”, the binding signal is reported as 3510 fluorescence intensity (a.u.).
In the case of “TGCTGCAAAAGAAATTGGGTTTTGTTTATCCTCTATCATTCGGAGTCACCTAGTGCAG”, the binding signal is reported as 4230 fluorescence intensity (a.u.).
In the case of “CCAAAGTGCTTAGAATAAACCCTAACCTGGCCCTTATCATCGGAGTCACCTAGTGCAG”, the binding signal is reported as 24300 fluorescence intensity (a.u.).
With “AGCCCCAGCTTCGCGGCCCCGCTTGACCAGTAGATACACGCGGAGTCACCTAGTGCAG” the binding signal was 3560 fluorescence intensity (a.u.).
With “CTCGCCGTGGGTGTTTAGCAGCAGGGACGTGGCCGTCGCCCGGAGTCACCTAGTGCAG” the binding signal was 5100 fluorescence intensity (a.u.).
With “ATCTAACTCATCCATTTGCTGGTGAGACTTGACATCCCAACGGAGTCACCTAGTGCAG” the binding signal was 3430 fluorescence intensity (a.u.).
With “AATCGAAAGGGACATCATACTCGCCACGCCGGATCTCGCCCGGAGTCACCTAGTGCAG” the binding signal was 4420 fluorescence intensity (a.u.).
“GGCGCACCCGCGGCGCGTTCATCGCCGCCGTGTTCTCCATCGGAGTCACCTAGTGCAG” was tested, and the binding signal was 3750 fluorescence intensity (a.u.).
For “GTTCGTTAGACTGACATGTGGGGCCAGGATATGCTCGGATCGGAGTCACCTAGTGCAG”, the binding signal was 4150 fluorescence intensity (a.u.).
“CGTCTTGGTACAGTGCGTACACGTCTCGATCTATATTAGTCGGAGTCACCTAGTGCAG” was tested, and the binding signal was 7250 fluorescence intensity (a.u.).
In the case of “AGCGCCAGTCCCGTTGGCGCTGACACGGCCAACCTCAGCGCGGAGTCACCTAGTGCAG”, the binding signal is reported as 5990 fluorescence intensity (a.u.).
With “AGCAAAGGCAGCAGCCAGCAGTTTCAGAGTTCAGGGATGCCGGAGTCACCTAGTGCAG” the binding signal was 35200 fluorescence intensity (a.u.).
“CCCACGCCGCCGCCGCCGCCACGTCCGCCTTTTCCCCGCTCGGAGTCACCTAGTGCAG” was tested, and the binding signal was 10900 fluorescence intensity (a.u.).
In the case of “ATCGCGCATCCACTCCACACCACACGCTTCACTGGTTCCGCGGAGTCACCTAGTGCAG”, the binding signal is reported as 3870 fluorescence intensity (a.u.).
With “AAAGCCTGTGGCCACATCTTATCTTTTCCATCCTTTGCATCGGAGTCACCTAGTGCAG” the binding signal was 3220 fluorescence intensity (a.u.).
For “ATGCCACGCGTACGAGTCCCGTGACGTGCTGGCCCGCTACCGGAGTCACCTAGTGCAG”, the binding signal was 7140 fluorescence intensity (a.u.).
For “TATTATCTCTCGGCAGACCTACGATCTTACGTAGCTTACCCGGAGTCACCTAGTGCAG”, the binding signal was 3550 fluorescence intensity (a.u.).
With “TGTATTTGCTACCGTTTTCCAATATGTACCGTCATGTTTCCGGAGTCACCTAGTGCAG” the binding signal was 3920 fluorescence intensity (a.u.).
In the case of “GCATGCCAAAATATGCTACGACGATGATGACGACGATTCCCGGAGTCACCTAGTGCAG”, the binding signal is reported as 4530 fluorescence intensity (a.u.).
With “AAAGGGGATAGTGCAGAAGTTACCTGGTCATCTTATGGCTCGGAGTCACCTAGTGCAG” the binding signal was 3540 fluorescence intensity (a.u.).
In the case of “ACGTTCTACGTGTCAAGAAGAAATGGTTCTCAACCCTCTCCGGAGTCACCTAGTGCAG”, the binding signal is reported as 4320 fluorescence intensity (a.u.).
“TTCCACTGACATCTGTCGCCACGAAAACGTGGCCCCTCCGCGGAGTCACCTAGTGCAG” was tested, and the binding signal was 4070 fluorescence intensity (a.u.).
For “ATGGTTCTAGTATTACGTGGCGCCTATGTGGCAGTGGCTCCGGAGTCACCTAGTGCAG”, the binding signal was 27400 fluorescence intensity (a.u.).
For “ATCTTCAAATCAATAGAATCATCATAATGATGATCTAGCTCGGAGTCACCTAGTGCAG”, the binding signal was 3530 fluorescence intensity (a.u.).
“GTTTTGCGTACGTGGCTGCACTTGAGTCGTCCGATGGGAACGGAGTCACCTAGTGCAG” was tested, and the binding signal was 6960 fluorescence intensity (a.u.).
